Results: PubChem BioAssay AID493014 (National Center for Advancing Translational Sciences (NCATS), 2011)
Some of the results follow. The main result of the screen is listed elsewhere. These columns were measured beside it and carry no call. Most of these compounds were active or inconclusive in the main read-out, so they are no random draw. Potencies come from curve fits of mixed quality, noted in brackets.

Assay: qHTS Assay to Find Inhibitors of Chronic Active B-Cell Receptor Signaling
Conditions: ABC-DLBCL IkBa-CBG/CBR reporter, luminescence ratio (green luciferase fused to IkBa over red control in TMD8 lymphoma cells), 4 h
Outline: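 TMD8 human ABC-DLBCL cells with doxycycline-inducible IκBα–green luciferase fusion and unfused red luciferase, in 0.5% FBS medium; compounds up to 46 uM, 4 h at 37C. Green/red luminescence ratio, filter-overlap corrected, fitted to concentration-response curves.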

[1] = measured here: CBR red luminescence, cell number
[2] = measured here: IkBa-CBG green luminescence

Compound	AC50 [1]	AC50 [2]
CN(C)S(=O)(=O)c1cccc(-c2nn(-c3ccccc3)cc2/C=C(/C#N)C(=O)NCc2ccco2)c1	0.731 µM [rising, full curve, poor fit]	–
O=C(N/N=C/c1cccs1)c1ccccn1	12.6 µM [falling, partial curve]	–
O=C(c1cccnc1)N1CCN(c2ccc3ccccc3n2)CC1	11.2 µM [rising, partial curve, poor fit]	–
CS(=O)(=O)c1cnc2c(-c3ccsc3)cnn2c1N	6.31 µM [rising, full curve]	10 µM [falling, partial curve, poor fit]
CCCc1ccc(-c2cc(C(=O)N/N=C/c3ccc([N+](=O)[O-])o3)c3ccccc3n2)cc1	6.51 µM [rising, partial curve, poor fit]	–
CCOC(=O)C1CCCN(Cc2cc(Br)ccc2OC)C1 (stereo not drawn)	32.6 µM [rising, single point]	–
CC(C)(C)[C@H](N)C(=O)N[C@H]1CCC2C3CC=C4C[C@@H](O)CC[C@]4(C)C3CC[C@@]21C (stereo partly drawn)	–	32.6 µM [rising, partial curve, poor fit]
CCN(CC(=O)Nc1cc(Cl)ccc1C)C(=O)CSCc1ccccc1	6.51 µM [rising, single point]	–
O=C(CCCl)Nc1nc2c(s1)CCc1ccccc1-2	0.251 µM [falling, full curve, poor fit]	–
OC(CNC1Cc2ccccc2C1)c1ccccc1 (stereo not drawn)	1.78 µM [rising, full curve]	–
Cc1ccc(NC(=O)CCn2cccc2)cc1F	4.11 µM [rising, full curve, poor fit]	–
COc1cccc(Nc2nc(-c3sc(N)nc3C)cs2)c1	8.2 µM [falling, partial curve, poor fit]	–
COc1cc(/C=C(\C#N)c2nc3ccccc3[nH]2)cc(OC)c1O	4.47 µM [falling, partial curve, poor fit]	–
Cc1cc(C)cc(NC(=O)CSc2ccccc2)c1	0.501 µM [rising, full curve, poor fit]	–
Cc1cc(NC(=O)CSc2ccccn2)no1	11.2 µM [rising, partial curve, poor fit]	–
COc1ccc2c(-c3ccc(OCCN4CCOCC4)cc3)c(-c3ccccc3OC)sc2c1	–	16.4 µM [falling, partial curve, poor fit]
OCc1nn2c(c1Br)NC(c1ccccc1)CC2C(F)(F)F (stereo not drawn)	18.4 µM [rising, partial curve, poor fit]	–
c1ccc(-c2noc(-c3cccc4ccccc34)n2)cc1	32.6 µM [falling, single point]	–
CC(=O)Oc1ccc(-c2csc(Nc3cccc(C)n3)n2)cc1	4.47 µM [falling, partial curve]	–
CC(C)CCNC(=O)c1onc(CSc2ccc(F)c(F)c2)c1C(=O)NCCC(C)C	8.91 µM [rising, partial curve, poor fit]	–
CCOc1ccc(C(=O)Nc2ccc3[nH]ncc3c2)cc1	0.398 µM [falling, full curve, poor fit]	–
OC(COc1ccc2cc(Br)ccc2c1)CN1CCCC1 (stereo not drawn)	13 µM [falling, partial curve]	–

Compound	AC50 [1]	AC50 [2]
Nc1ccc(-c2nc3ccc(-c4nc5ccccc5o4)cc3[nH]2)cc1	0.112 µM [rising, full curve, poor fit]	–
CN(C)CCCNC(=S)Nc1ccc(-c2ccccc2)cc1	35.5 µM [falling, single point]	–
CN1CCN(C(=S)c2ccc(-c3cccc(Cl)c3Cl)o2)CC1	2.31 µM [rising, partial curve]	–
Oc1c(C=NCc2ccccc2)sc2ccccc12	12.6 µM [falling, partial curve]	–
COc1ccc(CCNC(=O)CSc2nnc3ccc(-c4ccccn4)nn23)cc1	1.64 µM [falling, full curve, poor fit]	–
Clc1cccc(CN2CCN(c3nc4nonc4nc3NC3CC3)CC2)c1	17.8 µM [falling, partial curve, poor fit]	–
O=C(Cc1ccccc1)NC(Nc1cccc2ccccc12)C(Cl)(Cl)Cl (stereo not drawn)	0.501 µM [falling, full curve]	–
Cc1ccc2c(c1)NC(=O)C(CC(=O)Nc1ccc(Br)c(C)c1)O2 (stereo not drawn)	3.98 µM [rising, partial curve]	–
COC(=O)c1c(NC(=O)CSc2nc3nc(C)cc(C)n3n2)sc(C)c1C	29.1 µM [rising, partial curve, poor fit]	–
CSc1ccccc1OCc1cc(C(=O)NC2CCOC(C)(C)C2)no1 (stereo not drawn)	35.5 µM [falling, single point]	–
NC(=O)CSc1nnc2sc3ccccc3n12	15.8 µM [rising, partial curve, poor fit]	–
COc1ccccc1C(=O)NNC(=O)c1ccccc1[N+](=O)[O-]	5.17 µM [falling, partial curve]	–
Cc1ccc(/C=N/Nc2cccc(C(=O)O)c2)s1	0.058 µM [falling, full curve]	–
C/C(=C1/SC(N2CC(C)OC(C)C2)=NC1=O)c1ccccc1 (stereo not drawn)	1.03 µM [rising, full curve, poor fit]	–
CCN(CC(=O)Nc1c(F)cccc1F)C(=O)/C=C/c1ccc2c(c1)OCO2	2.06 µM [falling, partial curve]	–
Cc1ccc2cc(C=O)c(N3CCOCC3)nc2c1C	35.5 µM [rising, single point]	–
COc1cc2c(cc1NC(=O)CSc1nc3ccccc3[nH]1)oc1ccccc12	13 µM [falling, single point]	–
COc1ccc(NC(=O)c2ccc3c(c2)OCO3)cc1Cl	0.562 µM [falling, full curve]	–
COCCCNC(=O)c1cc(C(=O)c2c(-c3c(Cl)cccc3Cl)noc2C)c[nH]1	6.31 µM [rising, single point]	–
O=C(NN1C(=O)C2C3C=CC(C4CC34)C2C1=O)c1ccc(Cl)cc1 (stereo not drawn)	0.891 µM [falling, full curve, poor fit]	–
O=C(CC(Nc1ccc(Cl)cc1)C(=O)O)c1ccccc1 (stereo not drawn)	11.6 µM [falling, partial curve, poor fit]	–
O=C(/C=C/c1ccccc1)NCCc1ccccc1	8.91 µM [falling, partial curve, poor fit]	–

Compound	AC50 [1]	AC50 [2]
CCOC(=O)C1=C(C)NC2=C(C(=O)CC(C)(C)C2)C1c1ccc(N(C)C)cc1 (stereo not drawn)	8.2 µM [rising, partial curve, poor fit]	–
CCOC(=O)c1cccc(NC(=O)CCn2c(-c3ccc(F)cc3)cc(C(=O)OCC)c2C)c1	3.55 µM [rising, single point]	–
N#Cc1ccc(/C=C/C(=O)c2ccccc2)cc1	17.8 µM [rising, partial curve, poor fit]	31.6 µM [falling, single point]
O=C(O)c1ccc(Nc2nc3c(s2)CCCC3)cc1	0.355 µM [falling, full curve]	–
COc1cc(-c2cc(C(=O)NCCc3ccc(S(N)(=O)=O)cc3)c3ccccc3n2)cc(OC)c1OC	6.31 µM [rising, single point]	–
COc1ccc(N2CCN(S(=O)(=O)CCNS(=O)(=O)c3ccccc3)CC2)cc1	2.06 µM [rising, full curve]	–
CN(C)c1ccc(/C=N/NC(=O)c2ccc3nc[nH]c3c2)cc1	8.91 µM [falling, partial curve, poor fit]	–
COc1ccc(Br)c(C(=O)NCC2CCCCC2)c1	7.94 µM [rising, partial curve, poor fit]	–
COC(=O)c1ccccc1NC(=O)NC1CCN(Cc2ccccc2)CC1	1.16 µM [falling, full curve, poor fit]	–
O=S(=O)(Cc1ccccc1)NCCc1cccc(Cl)c1	6.31 µM [rising, full curve, poor fit]	–
CCN1C(=O)[C@H]2[C@H]3CN=C(SCc4ccc(Cl)cc4)N3[C@@](CC)(C(=O)OC)[C@H]2C1=O	25.9 µM [falling, partial curve]	–
Cc1cccc(-c2ccc3ncnc(N(C)Cc4ccco4)c3c2)c1	4.11 µM [rising, single point]	–
COCCCNC(=S)N/N=C/c1ccc(OC)c(Br)c1	–	35.5 µM [falling, single point]
COc1ccc(CC(NC(C)=O)C(=O)N2CCN(C(=O)N(C(C)C)C(C)C)CC2)cc1 (stereo not drawn)	29.1 µM [falling, single point]	–
COC(=O)c1ccccc1NC(=O)c1cc2sccc2n1C	6.51 µM [falling, full curve, poor fit]	–
O=C(Nc1cccc(C(F)(F)F)c1)Nc1ccon1	3.98 µM [rising, single point]	–
CC(C)(C(=O)Nc1nccs1)c1ccccc1	0.316 µM [falling, partial curve, poor fit]	–
Cc1nn(-c2ccccc2)c(C)c1NC(=O)c1ccc(S(=O)(=O)N2CCCC2)cc1	6.31 µM [rising, partial curve, poor fit]	–
CCOC(=O)CCNC(=O)c1ccc2nc(C3CCCCC3)oc2c1	12.6 µM [rising, partial curve]	–
CN(C)c1ccc(N2CN=C3SCC(=O)N3C2)cc1	6.31 µM [falling, partial curve]	–
CC(C)OCCCNC1=C(Cl)C(=O)c2ccccc2C1=O	0.708 µM [falling, full curve, poor fit]	0.562 µM [rising, full curve, poor fit]

16 entries from above, with bars between the fields:
Compound | AC50 [1] | AC50 [2]
CCOC(=O)c1cccc(NC(=O)CCn2c(-c3ccc(F)cc3)cc(C(=O)OCC)c2C)c1 | 3.55 µM [rising, single point] | –
N#Cc1ccc(/C=C/C(=O)c2ccccc2)cc1 | 17.8 µM [rising, partial curve, poor fit] | 31.6 µM [falling, single point]
O=C(O)c1ccc(Nc2nc3c(s2)CCCC3)cc1 | 0.355 µM [falling, full curve] | –
COc1cc(-c2cc(C(=O)NCCc3ccc(S(N)(=O)=O)cc3)c3ccccc3n2)cc(OC)c1OC | 6.31 µM [rising, single point] | –
COc1ccc(N2CCN(S(=O)(=O)CCNS(=O)(=O)c3ccccc3)CC2)cc1 | 2.06 µM [rising, full curve] | –
CN(C)c1ccc(/C=N/NC(=O)c2ccc3nc[nH]c3c2)cc1 | 8.91 µM [falling, partial curve, poor fit] | –
COc1ccc(Br)c(C(=O)NCC2CCCCC2)c1 | 7.94 µM [rising, partial curve, poor fit] | –
COC(=O)c1ccccc1NC(=O)NC1CCN(Cc2ccccc2)CC1 | 1.16 µM [falling, full curve, poor fit] | –
O=S(=O)(Cc1ccccc1)NCCc1cccc(Cl)c1 | 6.31 µM [rising, full curve, poor fit] | –
CCN1C(=O)[C@H]2[C@H]3CN=C(SCc4ccc(Cl)cc4)N3[C@@](CC)(C(=O)OC)[C@H]2C1=O | 25.9 µM [falling, partial curve] | –
Cc1cccc(-c2ccc3ncnc(N(C)Cc4ccco4)c3c2)c1 | 4.11 µM [rising, single point] | –
COCCCNC(=S)N/N=C/c1ccc(OC)c(Br)c1 | – | 35.5 µM [falling, single point]
COc1ccc(CC(NC(C)=O)C(=O)N2CCN(C(=O)N(C(C)C)C(C)C)CC2)cc1 (stereo not drawn) | 29.1 µM [falling, single point] | –
COC(=O)c1ccccc1NC(=O)c1cc2sccc2n1C | 6.51 µM [falling, full curve, poor fit] | –
O=C(Nc1cccc(C(F)(F)F)c1)Nc1ccon1 | 3.98 µM [rising, single point] | –
CC(C)(C(=O)Nc1nccs1)c1ccccc1 | 0.316 µM [falling, partial curve, poor fit] | –
